Data from article PMC6949113, “Preclinical evaluation of AT-527, a novel guanosine nucleotide prodrug with potent, pan-genotypic activity against hepatitis C virus” (PLoS ONE, 2020).
Further values from the same series stand in other lists.

Assay: Monkey PK study, liver and heart tissue levels
Type: in vivo, cynomolgus monkey
Details: for Mean Concentration at 4 hr Postdose, Heart: footnoted values extrapolated below LLOQ
From the text: Monkey PK study. Male non-naïve cynomolgus monkeys were obtained from Hainan Jingang Laboratory Animal Co., Ltd. (Hainan, China), group housed during the 5-day acclimation period or individually housed during the study in stainless steel mesh cages, provided ad libitum access to RO water, fed twice daily (~120 g Certified Monkey Diet daily; Beijing Vital Keao Feed Co., Ltd., Beijing, China) and given daily treats of fresh fruit. Additional environmental enrichment included classical music and cartoons. Three groups of 5 monkeys each were administered 30, 100 or 300 mg/kg AT-527 as a powder filled in empty porcine hard gelatin capsules (size 0). The monkeys were fasted overnight prior to dosing and fed 4 h after dosing. Three dosages were selected to provide assessments of dose proportionality, the top two representing potential doses for a repeated oral dose toxicity study in monkeys, and the lowest predicted to be more therapeutically relevant. A pill gun was used to place the capsule beyond the root of the animals’ tongues and their mouths were held loosely closed for approximately 30 sec to allow them to move the jaw and swallow the capsule. Immediately following capsule administration, 20 mL of water was given by mouth and then the mouth was opened to ensure the capsule was swallowed. Blood samples (~0.6 mL) were collected up to 72 h from three animals per dose group, and up to 4 h from the remaining two animals in each group, at the same time points described for rats. […] Blood samples were collected with a syringe from a peripheral blood vessel from restrained, non-sedated animals, immediately transferred to pre-chilled tubes containing ~1 mg K2EDTA•2H20 and 20 μL of 5 mM dichlorvos solution, mixed and placed on ice until plasma was prepared by centrifugation as described for rats. Immediately after centrifugation, plasma samples were extracted with 4 volumes ISS2, and the supernatants were clarified by centrifugation (12,000 rpm, 10 min, 4°C) and stored at ≤ -60°C until analyzed by LC-MS/MS as described below. After the 4-hr blood collection, two monkeys per dose group were anesthetized with intravenous injection of pentobarbital sodium (60 mg/kg) and then euthanized as described for rats. […] All analytes were quantitated by LC-MS/MS as described below.
For the analysis of AT-9010 in rat tissue homogenate supernatant, aliquots were diluted 1:2 with water and injected onto an Agilent Zorbax Extend C18 5 μm, 2.1 × 50 mm column and a Sciex API 4000 mass spectrometer (ESI positive ion, MRM mode). Mobile phases A (0.001% ammonia and 0.18 mM DBAA in water (1:1, v/v) and B (10 mM dimethylhexylamine (DMHA) and 3 mM AA in 50% ACN in water) were used to elute samples (60 μL) at 0.7 mL/min with 2% B for 0.8 min followed by a linear gradient to 30% B over 0.4 min, isocratic elution at 30% B for 0.4 min, a linear gradient to 95% B over 0.4 min, and ending with 95% B for 0.4 min. The analysis of AT-9010 in monkey tissue homogenate supernatant was the same except the sample injection volume was 20 μL. Attempts to measure tissue levels of other potentially formed TPs, including 2,6-diaminopurine-2’-F-2’-C-methylribosyl-5’-triphosphate and 2-amino-6-methylaminopurine-2’-F-2’-C-methylribosyl-5’-triphosphate (M2-TP), also used this method.
For the analysis of M2 and M3 in monkey tissue homogenate supernatant, aliquots were diluted 1:3 with water and injected onto an Acuity HSS T3 1.8 μm, 2.1 × 50 mm column and a Sciex API 6500 mass spectrometer (ESI positive ion, MRM mode). Mobile phases A (0.3% FA and 10 mM AA in water and B (0.3% FA and 10 mM AA in 95% ACN in water) were used to elute samples (1 μL) at 0.6 mL/min with 0% B for 0.4 min followed by linear gradients to 30% B over 0.5 min and to 95% B over 0.2 min, ending with isocratic elution at 95% B for 0.4 min.

Compound: CNc1nc(N)nc2c1ncn2[C@@H]1O[C@H](CO[P@](=O)(O)N[C@@H](C)C(=O)O)[C@@H](O)[C@@]1(C)F [M1]
- Mean Concentration at 4 hr Postdose, Liver (AT-527 30 mg/kg oral): 319 pmol/g
- Mean Concentration at 4 hr Postdose, Heart (AT-527 30 mg/kg oral): 86.3 pmol/g
- Mean Concentration at 4 hr Postdose, Liver (AT-527 100 mg/kg oral): 671 pmol/g
- Mean Concentration at 4 hr Postdose, Heart (AT-527 100 mg/kg oral): 187 pmol/g
- Mean Concentration at 4 hr Postdose, Liver (AT-527 300 mg/kg oral): 3510 pmol/g
- Mean Concentration at 4 hr Postdose, Heart (AT-527 300 mg/kg oral): 630 pmol/g

Compound: CNc1nc(N)nc2c1ncn2[C@@H]1O[C@H](CO)[C@@H](O)[C@@]1(C)F [M4]
- Mean Concentration at 4 hr Postdose, Liver (AT-527 30 mg/kg oral): 381 pmol/g
- Mean Concentration at 4 hr Postdose, Heart (AT-527 30 mg/kg oral): 180 pmol/g
- Mean Concentration at 4 hr Postdose, Liver (AT-527 100 mg/kg oral): 1340 pmol/g
- Mean Concentration at 4 hr Postdose, Heart (AT-527 100 mg/kg oral): 717 pmol/g
- Mean Concentration at 4 hr Postdose, Liver (AT-527 300 mg/kg oral): 1950 pmol/g
- Mean Concentration at 4 hr Postdose, Heart (AT-527 300 mg/kg oral): 1040 pmol/g
